Data as given in PubChem BioAssay AID686938 (Drosophila RNAi Screening Center, 2013)
The screen tested about 23,000 reagents; this is a random part of those with a known target gene and a result. Over the whole deposit, 75 (0.33%) are marked active. 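Raw plate signals without normalisation; calls rest on plate z-scores that were not deposited; ratio present for only 364 wells.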 The numbers tell different reagents against one gene apart. Names joined by + are all predicted targets of the reagent. The record does not give: the dose of the treatment.

- Assay: 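Fly genes required for calcium entry once internal stores are emptied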 (primary screen)
- Cell system: Drosophila S2R+ cells
- Knock-down reagent: long dsRNA against Drosophila genes, about 0.25 µg dsRNA per well, roughly 10,000 cells
- Time to read-out: 5 days of knock-down before the calcium assay
- Conditions: thapsigargin (SERCA pump blocker) to empty calcium stores; entry signal taken 4 min after adding it
- Read-out: 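Duplicate raw fluo-4 intensities per well from a plate reader, at rest and four minutes after thapsigargin emptied calcium stores; entry-to-rest ratio filled for only some wells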
- Direction: calcium entry signal: higher = stronger calcium signal after store depletion; resting calcium signal: higher = higher resting calcium signal
- Units: calcium entry signal in fluorescence units; resting calcium signal in fluorescence units
- Rule for the call: 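Hit if the duplicate-averaged plate z-score for entry over resting signal is under −3; wells with weak total dye signal (Fmax z < −2) or more than 5 off-targets removed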
- Meaning of the calls: active = strongly reduced calcium entry; inactive = no strong reduction

{"predicted target":"Ing5","reagent":1,"calcium entry signal, replicate 1":3.90e7,"resting calcium signal, replicate 1":1.86e7,"activity call":"inactive"}
{"predicted target":"Ggamma1","reagent":1,"calcium entry signal, replicate 1":3.90e7,"calcium entry signal, replicate 2":4.55e7,"resting calcium signal, replicate 1":1.70e7,"resting calcium signal, replicate 2":2.07e7,"activity call":"inactive"}
{"predicted target":"slpr","reagent":1,"calcium entry signal, replicate 1":2.29e7,"calcium entry signal, replicate 2":3.34e7,"resting calcium signal, replicate 1":1.11e7,"resting calcium signal, replicate 2":1.50e7,"activity call":"inactive"}
{"predicted target":"slpr","reagent":2,"calcium entry signal, replicate 1":3.46e7,"calcium entry signal, replicate 2":3.98e7,"resting calcium signal, replicate 1":1.62e7,"resting calcium signal, replicate 2":1.83e7,"activity call":"inactive"}
{"predicted target":"Arp10","reagent":1,"calcium entry signal, replicate 1":3.79e7,"calcium entry signal, replicate 2":3.92e7,"resting calcium signal, replicate 1":1.81e7,"resting calcium signal, replicate 2":1.72e7,"activity call":"inactive"}
{"predicted target":"Zip48C","reagent":1,"calcium entry signal, replicate 1":3.23e7,"calcium entry signal, replicate 2":3.32e7,"resting calcium signal, replicate 1":1.39e7,"resting calcium signal, replicate 2":1.62e7,"activity call":"inactive"}
{"predicted target":"Mst87F","reagent":1,"calcium entry signal, replicate 1":3.81e7,"calcium entry signal, replicate 2":6.04e7,"resting calcium signal, replicate 1":1.87e7,"resting calcium signal, replicate 2":6.91e7,"activity call":"inactive"}
{"predicted target":"CG8132","reagent":1,"calcium entry signal, replicate 1":2.23e7,"calcium entry signal, replicate 2":2.15e7,"resting calcium signal, replicate 1":1.32e7,"resting calcium signal, replicate 2":1.15e7,"activity call":"inactive"}
{"predicted target":"b","reagent":1,"calcium entry signal, replicate 1":4.42e7,"calcium entry signal, replicate 2":2.66e7,"resting calcium signal, replicate 1":1.79e7,"resting calcium signal, replicate 2":1.20e7,"activity call":"inactive"}

Single entries from the entries so far.
Result for Mst87F in “resting calcium signal, replicate 1”: 1.87e7
slpr #2, resting calcium signal, replicate 2 → 1.83e7

The listing continues.
{"predicted target":"Gr39a","reagent":1,"calcium entry signal, replicate 1":1.67e7,"calcium entry signal, replicate 2":2.77e7,"resting calcium signal, replicate 1":8.20e6,"resting calcium signal, replicate 2":2.40e7,"activity call":"inactive"}
{"predicted target":"Gr39a","reagent":2,"calcium entry signal, replicate 1":1.73e7,"calcium entry signal, replicate 2":2.95e7,"resting calcium signal, replicate 1":7.65e6,"resting calcium signal, replicate 2":2.47e7,"activity call":"inactive"}
{"predicted target":"CG43316","reagent":1,"calcium entry signal, replicate 1":2.78e7,"calcium entry signal, replicate 2":4.06e7,"resting calcium signal, replicate 1":1.46e7,"resting calcium signal, replicate 2":1.85e7,"activity call":"inactive"}
{"predicted target":"spidey","reagent":1,"calcium entry signal, replicate 1":2.05e7,"calcium entry signal, replicate 2":3.62e7,"resting calcium signal, replicate 1":1.04e7,"resting calcium signal, replicate 2":1.61e7,"activity call":"inactive"}
{"predicted target":"UQCR-Q","reagent":1,"calcium entry signal, replicate 1":3.93e7,"calcium entry signal, replicate 2":5.91e7,"resting calcium signal, replicate 1":1.75e7,"resting calcium signal, replicate 2":2.40e7,"activity call":"inactive"}
{"predicted target":"CG7332","reagent":1,"calcium entry signal, replicate 1":4.07e7,"calcium entry signal, replicate 2":3.95e7,"resting calcium signal, replicate 1":1.93e7,"resting calcium signal, replicate 2":1.56e7,"activity call":"inactive"}
{"predicted target":"CG10481","reagent":1,"calcium entry signal, replicate 1":2.59e7,"calcium entry signal, replicate 2":4.51e7,"resting calcium signal, replicate 1":1.34e7,"resting calcium signal, replicate 2":1.89e7,"activity call":"inactive"}
{"predicted target":"CG33981 + fab1","reagent":1,"calcium entry signal, replicate 1":3.42e7,"calcium entry signal, replicate 2":3.34e7,"resting calcium signal, replicate 1":1.62e7,"resting calcium signal, replicate 2":1.67e7,"activity call":"inactive"}
{"predicted target":"tilB","reagent":1,"calcium entry signal, replicate 1":4.43e7,"calcium entry signal, replicate 2":4.69e7,"resting calcium signal, replicate 1":2.07e7,"resting calcium signal, replicate 2":1.85e7,"activity call":"inactive"}
{"predicted target":"CG11227","reagent":1,"calcium entry signal, replicate 1":5.07e7,"calcium entry signal, replicate 2":5.78e7,"resting calcium signal, replicate 1":2.61e7,"resting calcium signal, replicate 2":2.42e7,"activity call":"inactive"}
{"predicted target":"CG42566","reagent":1,"calcium entry signal, replicate 1":2.90e7,"calcium entry signal, replicate 2":6.74e7,"resting calcium signal, replicate 1":1.46e7,"resting calcium signal, replicate 2":2.83e7,"activity call":"inactive"}
{"predicted target":"Sec61beta","reagent":1,"calcium entry signal, replicate 1":3.02e7,"calcium entry signal, replicate 2":2.89e7,"resting calcium signal, replicate 1":1.94e7,"resting calcium signal, replicate 2":1.53e7,"activity call":"inactive"}
{"predicted target":"Sec61beta","reagent":2,"calcium entry signal, replicate 1":3.73e7,"calcium entry signal, replicate 2":3.22e7,"resting calcium signal, replicate 1":2.22e7,"resting calcium signal, replicate 2":2.13e7,"activity call":"inactive"}
